{"sequences": {"note": "Chains of the proteins cited; added tags and fusions are not shown. Residues count along the entry.", "UniProt O75197, residues 32-1615": "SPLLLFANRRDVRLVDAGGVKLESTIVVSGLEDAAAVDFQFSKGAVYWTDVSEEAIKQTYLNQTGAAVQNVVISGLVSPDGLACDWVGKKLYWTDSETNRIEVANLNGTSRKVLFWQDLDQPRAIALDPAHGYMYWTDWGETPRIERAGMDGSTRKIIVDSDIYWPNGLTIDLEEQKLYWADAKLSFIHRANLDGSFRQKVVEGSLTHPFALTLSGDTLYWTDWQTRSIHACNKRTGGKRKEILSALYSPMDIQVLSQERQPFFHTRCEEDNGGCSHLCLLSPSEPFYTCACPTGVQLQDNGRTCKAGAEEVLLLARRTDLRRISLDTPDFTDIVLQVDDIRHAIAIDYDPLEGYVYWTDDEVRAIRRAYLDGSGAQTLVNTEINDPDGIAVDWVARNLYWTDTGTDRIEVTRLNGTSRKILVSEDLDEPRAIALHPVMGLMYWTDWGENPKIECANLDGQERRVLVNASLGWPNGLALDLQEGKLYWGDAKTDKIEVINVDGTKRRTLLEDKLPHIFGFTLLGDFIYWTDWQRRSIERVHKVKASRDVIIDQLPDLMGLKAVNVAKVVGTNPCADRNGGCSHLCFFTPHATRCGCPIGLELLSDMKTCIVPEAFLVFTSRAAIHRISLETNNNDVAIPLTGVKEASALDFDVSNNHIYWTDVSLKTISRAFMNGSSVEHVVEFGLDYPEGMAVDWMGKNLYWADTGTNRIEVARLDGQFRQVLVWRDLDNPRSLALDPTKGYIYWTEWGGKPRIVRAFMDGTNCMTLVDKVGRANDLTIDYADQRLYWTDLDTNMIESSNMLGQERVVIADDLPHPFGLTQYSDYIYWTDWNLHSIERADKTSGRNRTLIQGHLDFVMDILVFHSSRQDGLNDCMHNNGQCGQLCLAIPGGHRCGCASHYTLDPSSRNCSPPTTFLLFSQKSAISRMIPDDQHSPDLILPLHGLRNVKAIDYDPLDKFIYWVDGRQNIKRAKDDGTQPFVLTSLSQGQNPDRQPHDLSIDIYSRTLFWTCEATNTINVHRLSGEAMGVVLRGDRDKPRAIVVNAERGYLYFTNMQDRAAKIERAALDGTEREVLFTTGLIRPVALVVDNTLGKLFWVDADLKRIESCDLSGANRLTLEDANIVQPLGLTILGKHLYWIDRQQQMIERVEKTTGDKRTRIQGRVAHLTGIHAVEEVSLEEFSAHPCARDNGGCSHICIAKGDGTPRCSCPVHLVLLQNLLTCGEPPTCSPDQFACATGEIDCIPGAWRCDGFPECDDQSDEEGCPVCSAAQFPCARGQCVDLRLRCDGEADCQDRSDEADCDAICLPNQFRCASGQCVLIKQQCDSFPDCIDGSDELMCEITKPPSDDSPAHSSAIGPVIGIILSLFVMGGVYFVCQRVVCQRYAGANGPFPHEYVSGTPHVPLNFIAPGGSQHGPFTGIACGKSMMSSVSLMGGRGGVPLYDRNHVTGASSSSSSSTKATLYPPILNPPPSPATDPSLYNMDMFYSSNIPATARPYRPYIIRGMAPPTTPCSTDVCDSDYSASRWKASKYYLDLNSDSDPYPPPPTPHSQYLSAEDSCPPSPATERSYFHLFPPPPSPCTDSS"}, "source": "paper PMC6935199", "biological_target": "T1, Nucleoporin 37 (UniProt Q8NFH4)", "T1 sequence": "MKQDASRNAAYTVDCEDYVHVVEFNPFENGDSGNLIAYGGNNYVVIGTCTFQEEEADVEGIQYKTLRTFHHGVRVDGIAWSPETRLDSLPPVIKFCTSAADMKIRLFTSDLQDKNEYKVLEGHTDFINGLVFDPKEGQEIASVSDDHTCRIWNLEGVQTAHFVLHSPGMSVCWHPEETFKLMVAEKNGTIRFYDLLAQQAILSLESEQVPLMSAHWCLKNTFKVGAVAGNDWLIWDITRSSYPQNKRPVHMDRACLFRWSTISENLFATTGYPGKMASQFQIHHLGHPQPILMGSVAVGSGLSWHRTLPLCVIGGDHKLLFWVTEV", "assay": "co-IP; plasmids transiently transfected into HEK293 cells for 48 h; NP-40 lysis buffer; IP with Anti-Flag M2 Affinity Gel or anti-c-Myc agarose, mouse IgG agarose as negative control; 4 °C for 2 h; washed with TBST; Western blot", "note": "No constants are given. Whether binding was seen depends on the method and setting. In cells and extracts the contact can be indirect. Some entries that bind do so weakly or less than the wild type.", "data": [{"substance": "Low-density lipoprotein-related receptor 5 (from UniProt O75197 32-1615)", "values": [{"measurement": "binding", "result": "binds"}]}]}
